Source: PubChem BioAssay AID504764 (Drosophila RNAi Screening Center, 2011)

Screen: 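Genes whose knock-down alters Notch-dependent transcription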 (primary screen)
System: Drosophila Kc167 cells
Reagent: long dsRNA against Drosophila genes
Timing: about 5 days (4 days dsRNA, then 24 h after transfection)
Challenge: transfection of constitutively active membrane-tethered Notch lacking the extracellular domain, read 24 h later
Measured: 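Firefly luciferase from an E(spl)m3 reporter with active Notch, plus control-promoter and uninduced reporter wells for normalisation; unnormalised counts, duplicate wells a and b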
Reading the numbers: induced reporter light, run 1, well a and induced reporter light, run 1, well b: higher = more light from the Notch target reporter with active Notch; control promoter light, run 1, well a and control promoter light, run 1, well b: higher = more light from the viral control promoter (cell number, transfection, viability); uninduced reporter light, run 1, well a: higher = more light from the Notch target reporter without active Notch
Call rule: 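Wells with low control signal or poorly matching duplicates excluded; duplicates averaged; per source plate, z beyond ±2 for induced/control log2 ratio or beyond ±1.8 for induced/uninduced marks a hit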
Calls: active = modifier hit (raised or lowered Notch signal); inactive = not a hit
In all, the deposit lists about 22,000 reagents; below is a random part of those with a known target gene and a result. In the full data, 403 (1.9%) got an active call. 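Unnormalised raw counts per well; ratio z-scores behind the hit calls and whether each hit raises or lowers signal are not deposited.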 Unmarked entries are inactive. Names joined by + are all predicted targets of the reagent. Not given: the amount of reagent.

predicted target | dsRNA | induced reporter light, run 1, well a | induced reporter light, run 1, well b | control promoter light, run 1, well a | control promoter light, run 1, well b | uninduced reporter light, run 1, well a
Srp68 | DRSC10475 | 63485 | 72985 | 52970 | 25790 | 4340
Gbeta76C | DRSC11174 | 1.64e5 | 1.83e5 | 1.26e5 | 1.45e5 | 12475
SIDL | DRSC16077 | 1.18e5 | 1.25e5 | 83500 | 77850 | 10540
Sans | DRSC06357 | 1.61e5 (active) | 1.55e5 | 2.07e5 | 2.24e5 | 11350
asRNA:CR42743 + CG34162 | DRSC01190 | 1.43e5 | 1.58e5 | 2.04e5 | 1.53e5 | 11675
Gpo1 | DRSC07128 | 1.04e5 | 1.38e5 | 2.00e5 | 2.02e5 | 8215
CR34254 | DRSC09562 | 1.93e5 | 1.97e5 | 2.76e5 | 2.56e5 | 15335
Zip42C.1 | DRSC05003 | 1.60e5 | 1.39e5 | 1.72e5 | 1.65e5 | 10110
GluRIIC | DRSC00642 | 2.03e5 | 1.85e5 | 2.06e5 | 2.07e5 | 19290
unc-13-4A | DRSC10201 | 1.42e5 | 1.83e5 | 2.16e5 | 1.52e5 | 7475
unc-13-4A | DRSC10202 | 1.65e5 | 1.64e5 | 1.44e5 | 1.27e5 | 5210
unc-13-4A | DRSC10203 | 8380 | 10425 | 8000 | 8740 | 2410
unc-13-4A | DRSC11013 | 1.32e5 | 1.12e5 | 1.33e5 | 1.11e5 | 5335
Mfap1 | DRSC08154 | 48020 | 43620 | 65385 | 76120 | 2950
CG7071 + Muted | DRSC16189 | 1.74e5 | 1.78e5 | 2.04e5 | 2.29e5 | 15685
CG6106 | DRSC19971 | 89215 | 91060 | 86505 | 77000 | 12185
Cul6 | DRSC09830 | 1.22e5 | 1.17e5 | 96165 | 82830 | 12805
Hrd3 | DRSC14156 | 1.89e5 | 1.95e5 | 2.31e5 | 2.36e5 | 15150
CG1316 | DRSC08304 | 67145 | 1.06e5 | 1.07e5 | 1.04e5 | 5038
Or67d | DRSC10158 | 2.65e5 | 1.74e5 | 2.31e5 | 2.46e5 | 12765
CG12224 | DRSC14480 | 1.11e5 | 93600 | 1.23e5 | 66820 | 6925

Next part; the last 3 above are carried over.
predicted target | dsRNA | induced reporter light, run 1, well a | induced reporter light, run 1, well b | control promoter light, run 1, well a | control promoter light, run 1, well b | uninduced reporter light, run 1, well a
CG1316 | DRSC08304 | 67145 | 1.06e5 | 1.07e5 | 1.04e5 | 5038
Or67d | DRSC10158 | 2.65e5 | 1.74e5 | 2.31e5 | 2.46e5 | 12765
CG12224 | DRSC14480 | 1.11e5 | 93600 | 1.23e5 | 66820 | 6925
Charon | DRSC00679 | 1.79e5 | 1.92e5 | 1.83e5 | 2.03e5 | 16050
Prosbeta7 | DRSC12186 | 39185 | 33290 | 23332 | 21720 | 3255
PVRAP | DRSC09966 | 81970 | 1.07e5 | 70205 | 59825 | 7695
PVRAP | DRSC10577 | 1.39e5 (active) | 1.35e5 | 3.48e5 | 2.66e5 | 7950
Bcs1 | DRSC02789 | 97130 | 1.15e5 | 64170 | 85830 | 15745
snky | DRSC09838 | 1.33e5 | 1.42e5 | 2.08e5 | 1.53e5 | 8925
Cyp317a1 | DRSC07366 | 85585 | 77750 | 1.11e5 | 1.25e5 | 8050
Fadd | DRSC14122 | 1.55e5 | 1.61e5 | 2.26e5 | 2.10e5 | 13065
Prosbeta5 | DRSC07517 | 17315 | 19800 | 23690 | 27075 | 2015
Ufsp2 | DRSC10231 | 1.52e5 | 1.56e5 | 81965 | 88030 | 9855
Hsdl2 | DRSC15839 | 2.08e5 | 1.86e5 | 2.20e5 | 2.57e5 | 14535
loqs | DRSC02997 | 1.16e5 | 1.52e5 | 1.74e5 | 1.90e5 | 11930
CG12502 | DRSC08281 | 91275 | 97840 | 1.52e5 | 1.96e5 | 7380
Orco | DRSC12358 | 94825 | 98940 | 62160 | 73770 | 6165
Xpc | DRSC07654 | 1.17e5 | 97530 | 2.02e5 | 2.29e5 | 10115
Stat92E | DRSC16870 | 1.66e5 | 1.68e5 | 2.07e5 | 1.85e5 | 14928
CG7497 | DRSC10857 | 1.42e5 | 1.49e5 | 1.05e5 | 1.28e5 | 8735
Ccn | DRSC09504 | 1.74e5 | 1.52e5 | 2.94e5 | 2.47e5 | 17025
Ccn | DRSC09506 | 1.30e5 | 1.19e5 | 1.33e5 | 1.58e5 | 13130
Ccn | DRSC10062 | 1.08e5 | 92370 | 74450 | 85095 | 8040
Ccn | DRSC10063 | 2.11e5 | 1.57e5 | 2.28e5 | 2.00e5 | 11405
DIP-kappa | DRSC01336 | 80705 | 77315 | 58640 | 49630 | 6110
DIP-kappa | DRSC01337 | 1.04e5 | 1.03e5 | 1.65e5 | 1.53e5 | 9790
CG12945 | DRSC14573 | 44135 | 46685 | 41480 | 38785 | 2210
Ptpmeg | DRSC08684 | 1.11e5 | 1.03e5 | 2.06e5 | 2.13e5 | 8100
stwl | DRSC11400 | 15260 | 22730 | 8795 | 9480 | 6845
msopa | DRSC11895 | 4075 | 3570 | 4280 | 2688 | 1170
Pomp | DRSC03201 | 81430 | 85825 | 57105 | 63975 | 5105
CG5823 | DRSC15881 | 1.80e5 | 1.87e5 | 2.20e5 | 2.44e5 | 18185
sds22 | DRSC17052 | 2.06e5 | 1.96e5 | 1.89e5 | 2.15e5 | 20265
ZC3H3 | DRSC10696 | 33340 | 35975 | 42435 | 39545 | 2505
CG30380 | DRSC05069 | 71605 | 71700 | 96920 | 90105 | 3810
Ugt36E1 | DRSC02599 | 2.22e5 | 2.88e5 | 1.91e5 | 2.09e5 | 16690
Pde1c | DRSC02421 | 1.98e5 | 1.96e5 | 1.18e5 | 1.62e5 | 22160
Pde1c | DRSC02422 | 1.95e5 | 2.14e5 | 1.25e5 | 1.69e5 | 24835
Pde1c | DRSC02423 | 1.14e5 | 1.44e5 | 74230 | 95005 | 16895
Pde1c | DRSC02424 | 1.67e5 | 1.75e5 | 98145 | 1.24e5 | 22665
Pde1c | DRSC02425 | 1.33e5 | 1.35e5 | 1.70e5 | 1.83e5 | 15430
Pde1c | DRSC02426 | 1.37e5 | 1.61e5 | 1.69e5 | 1.92e5 | 12270
Gr23a | DRSC00410 | 1.01e5 | 82590 | 96170 | 63555 | 7210
mbt | DRSC20348 | 25025 | 23715 | 25480 | 20660 | 7888
CG34109 | DRSC02169 | 88675 | 1.29e5 | 67835 | 85425 | 17325
CG34109 | DRSC02224 | 1.13e5 | 1.26e5 | 60260 | 91425 | 15885
CG34109 | DRSC02225 | 76670 | 1.03e5 | 52415 | 68505 | 13790
